This is an account of results in paper PMC5770370.

Chains of the proteins cited; added tags and fusions are not shown.
UniProt Q9Z1E3: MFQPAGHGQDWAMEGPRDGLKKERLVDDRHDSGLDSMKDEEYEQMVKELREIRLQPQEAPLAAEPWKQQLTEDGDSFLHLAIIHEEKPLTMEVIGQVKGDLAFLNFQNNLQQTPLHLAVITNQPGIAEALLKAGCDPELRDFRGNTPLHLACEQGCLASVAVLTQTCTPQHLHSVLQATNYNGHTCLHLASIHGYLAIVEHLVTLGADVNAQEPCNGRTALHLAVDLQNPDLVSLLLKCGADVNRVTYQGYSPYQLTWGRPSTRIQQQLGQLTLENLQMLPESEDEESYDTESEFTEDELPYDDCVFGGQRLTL
UniProt Q04207: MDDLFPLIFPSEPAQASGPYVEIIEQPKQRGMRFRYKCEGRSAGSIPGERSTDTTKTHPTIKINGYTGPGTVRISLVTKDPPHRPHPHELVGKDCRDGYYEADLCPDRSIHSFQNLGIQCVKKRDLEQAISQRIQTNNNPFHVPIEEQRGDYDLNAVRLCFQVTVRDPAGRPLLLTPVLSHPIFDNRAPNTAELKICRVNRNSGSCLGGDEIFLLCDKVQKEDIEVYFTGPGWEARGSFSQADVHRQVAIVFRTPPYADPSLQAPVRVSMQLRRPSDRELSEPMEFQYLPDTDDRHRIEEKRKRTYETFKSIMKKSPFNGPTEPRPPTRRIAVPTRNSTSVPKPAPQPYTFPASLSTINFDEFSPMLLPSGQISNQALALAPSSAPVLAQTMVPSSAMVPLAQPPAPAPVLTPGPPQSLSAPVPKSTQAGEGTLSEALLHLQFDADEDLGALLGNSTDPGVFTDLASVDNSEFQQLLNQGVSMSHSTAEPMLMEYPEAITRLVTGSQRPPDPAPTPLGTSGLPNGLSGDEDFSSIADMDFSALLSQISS

These are yes or no findings as the source states them, for the method shown. Binding seen in cells or lysates may run through a third protein. Some results given as binding are weak or reduced against the parent protein; the word gives no strength.

The target of the test is IκBα (mouse (endogenous in RAW264.7)) (UniProt Q9Z1E3). The experiment in a line: co-IP; RAW264.7 cells lysed in NP40 buffer; lysate incubated with 2 μg IκBα antibody overnight, then 20 μL protein A/G agarose for 4 h at 4°C; washed with NP40 buffer, SDS-PAGE and western blotting; cells treated beforehand with bergenin (1-30 μM) or rosiglitazone (30 μM) for 24 h, with or without EX527 (1 μM) or GW9662 (10 μM), then LPS for 30 min. (In general: A western blot detects proteins with antibodies after separation by electrophoresis.)

As for NF-κB-p65 (from UniProt Q04207 1-549), the binding result is “binds”.
